# Results are given in words; binding and its absence hold for the method and conditions named. Binding seen in cells or lysates may run through a third protein. Some results given as binding are weak or reduced against the parent protein; the word gives no strength. Sequences can lack the tags named with a protein.
# Protein sequences, listed by entry. Tags and fused reporters are not part of them.
# UniProt P19474: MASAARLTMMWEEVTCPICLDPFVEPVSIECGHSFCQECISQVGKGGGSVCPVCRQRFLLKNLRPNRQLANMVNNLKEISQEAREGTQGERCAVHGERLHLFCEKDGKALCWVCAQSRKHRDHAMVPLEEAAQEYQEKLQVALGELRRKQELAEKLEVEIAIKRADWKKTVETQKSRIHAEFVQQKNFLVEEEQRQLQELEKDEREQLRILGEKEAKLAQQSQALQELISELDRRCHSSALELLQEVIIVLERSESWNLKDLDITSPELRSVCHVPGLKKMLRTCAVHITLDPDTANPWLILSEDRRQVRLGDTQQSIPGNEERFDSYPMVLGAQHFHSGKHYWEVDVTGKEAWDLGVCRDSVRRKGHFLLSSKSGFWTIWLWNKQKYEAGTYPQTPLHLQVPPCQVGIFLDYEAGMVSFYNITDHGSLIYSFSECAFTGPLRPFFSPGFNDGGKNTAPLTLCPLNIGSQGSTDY
# UniProt P17096: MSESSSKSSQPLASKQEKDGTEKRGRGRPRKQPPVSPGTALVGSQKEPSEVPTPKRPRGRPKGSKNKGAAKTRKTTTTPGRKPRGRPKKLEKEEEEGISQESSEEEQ
# T1: TOX conjugated with a GFP tag (thymocyte selection-associated high mobility group box) (UniProt O94900)
# T1 sequence: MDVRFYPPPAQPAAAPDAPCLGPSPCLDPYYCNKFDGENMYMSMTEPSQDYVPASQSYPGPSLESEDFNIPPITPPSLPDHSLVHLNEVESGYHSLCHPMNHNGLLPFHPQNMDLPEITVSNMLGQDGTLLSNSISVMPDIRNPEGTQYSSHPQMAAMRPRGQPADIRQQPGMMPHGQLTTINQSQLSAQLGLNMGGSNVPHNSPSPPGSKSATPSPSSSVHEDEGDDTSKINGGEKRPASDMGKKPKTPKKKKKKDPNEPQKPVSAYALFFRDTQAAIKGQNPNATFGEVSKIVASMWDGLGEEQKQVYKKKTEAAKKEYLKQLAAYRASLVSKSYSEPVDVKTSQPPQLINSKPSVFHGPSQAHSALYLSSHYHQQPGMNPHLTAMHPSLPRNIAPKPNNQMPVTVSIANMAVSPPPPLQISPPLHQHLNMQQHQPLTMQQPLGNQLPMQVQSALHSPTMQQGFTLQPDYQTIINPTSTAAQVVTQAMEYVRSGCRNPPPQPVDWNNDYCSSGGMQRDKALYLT
# B1: FLOT2 (protein, UniProt Q14254 1-428)
# chain: MGNCHTVGPNEALVVSGGCCGSDYKQYVFGGWAWAWWCISDTQRISLEIMTLQPRCEDVETAEGVALTVTGVAQVKIMTEKELLAVACEQFLGKNVQDIKNVVLQTLEGHLRSILGTLTVEQIYQDRDQFAKLVREVAAPDVGRMGIEILSFTIKDVYDKVDYLSSLGKTQTAVVQRDADIGVAEAERDAGIREAECKKEMLDVKFMADTKIADSKRAFELQKSAFSEEVNIKTAEAQLAYELQGAREQQKIRQEEIEIEVVQRKKQIAVEAQEILRTDKELIATVRRPAEAEAHRIQQIAEGEKVKQVLLAQAEAEKIRKIGEAEAAVIEAMGKAEAERMKLKAEAYQKYGDAAKMALVLEALPQIAAKIAAPLTKVDEIVVLSGDNSKVTSEVNRLLAELPASVHALTGVDLSKIPLIKKATGVQV
# B2: KCTD10 (protein, UniProt Q9H3F6 1-313)
# chain: MEEMSGESVVSSAVPAAATRTTSFKGTSPSSKYVKLNVGGALYYTTMQTLTKQDTMLKAMFSGRMEVLTDSEGWILIDRCGKHFGTILNYLRDGAVPLPESRREIEELLAEAKYYLVQGLVEECQAALQNKDTYEPFCKVPVITSSKEEQKLIATSNKPAVKLLYNRSNNKYSYTSNSDDNMLKNIELFDKLSLRFNGRVLFIKDVIGDEICCWSFYGQGRKIAEVCCTSIVYATEKKQTKVEFPEARIYEETLNILLYEAQDGRGPDNALLEATGGAAGRSHHLDEDEERERIERVRRIHIKRPDDRAHLHQ
# B3: FLOT1 (protein, UniProt O75955 1-427)
# chain: MFFTCGPNEAMVVSGFCRSPPVMVAGGRVFVLPCIQQIQRISLNTLTLNVKSEKVYTRHGVPISVTGIAQVKIQGQNKEMLAAACQMFLGKTEAEIAHIALETLEGHQRAIMAHMTVEEIYKDRQKFSEQVFKVASSDLVNMGISVVSYTLKDIHDDQDYLHSLGKARTAQVQKDARIGEAEAKRDAGIREAKAKQEKVSAQYLSEIEMAKAQRDYELKKAAYDIEVNTRRAQADLAYQLQVAKTKQQIEEQRVQVQVVERAQQVAVQEQEIARREKELEARVRKPAEAERYKLERLAEAEKSQLIMQAEAEAASVRMRGEAEAFAIGARARAEAEQMAKKAEAFQLYQEAAQLDMLLEKLPQVAEEISGPLTSANKITLVSSGSGTMGAAKVTGEVLDILTRLPESVERLTGVSISQVNHKPLRTA
# Target: T1, TOX conjugated with a GFP tag (thymocyte selection-associated high mobility group box)
# Test: co-IP; 1 mg lysate protein (1X RIPA with protease inhibitors) incubated with anti-GFP antibody or IgG control at 4 °C overnight, magnetic beads, low-pH elution, Western blot; also done on cells treated with or without MG132
row,Molecule,binding
1,TRIM21 (from UniProt P19474 1-475),binds
2,High Mobility Group A1 (HMGA1) (from UniProt P17096 1-107),binds
3,B1,binds
4,B2,binds
5,B3,binds

# From paper PMC12035900
